# Assay results as given in the supplement of paper PMC8616043.
# Counter-ions that a name gives are not always drawn. The list shows a part of the results. This data set is noisy: repeats of one test often differ as much as different tests do.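 PR50, a 50-repeat proline–arginine dipeptide protein from C9ORF72 (ALS/FTD), was expressed by transfection in U-2 OS human cells stably carrying a GFP sensor with import and classical export signals. Per-well nuclear-minus-cytoplasm GFP, normalized between in-plate DMSO (low) and PR-only (high), was scored versus other test wells; compounds well below zero were hits reversing PR.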
# System: U-2 OS NCT-C biosensor cells expressing PR50
# Experiment: Z-score of normalised NCT-C biosensor translocation index in PR50-expressing cells; higher = more nuclear biosensor (more disrupted nuclear export)
# Settings: 3 µM; 24 h
row,Structure (SMILES),Z-score
1,NC(CO)C(=O)NNCc1ccc(O)c(O)c1O (stereo not drawn) [Benserazide hydrochloride],inactive: 4.33
2,C[C@H]1COc2c(N3CCN(C)CC3)c(F)cc3c(=O)c(C(=O)O)cn1c23 [Levofloxacin·HCl],inactive: 0.264
3,CN(C/C=C/C#CC(C)(C)C)Cc1cccc2ccccc12 [Terbinafine·HCl],inactive: 0.625
4,O=c1[nH]cnc2c1ncn2[C@H]1CC[C@@H](CO)O1 [Didanosine],inactive: -0.276
5,Fc1ccc([C@@H]2CCNC[C@H]2COc2ccc3c(c2)OCO3)cc1 [Paroxetine HCl hemihydrate],inactive: 0.936
6,Fc1ccc([C@@H]2CCNC[C@H]2COc2ccc3c(c2)OCO3)cc1 [Paroxetine·HCl],inactive: -0.0994
7,Nc1nc(O)c2ncn(CCC(CO)CO)c2n1 [Penciclovir],inactive: -0.35
8,Cc1cc(O)c2c(c1)C(=O)c1cc(O)cc(O)c1C2=O [Emodin],inactive: -0.678
9,CCOC(=O)[C@H](CCc1ccccc1)N[C@@H](C)C(=O)N1Cc2cc(OC)c(OC)cc2C[C@H]1C(=O)O [Moexipril·HCl],inactive: -0.823
10,"Nc1ccc2c3c(cccc13)C(=O)NC2=O [4-Amino-1,8- naphthalimide]",inactive: 0.0571
11,CC(N)C(=O)OC(C)(C)Cc1ccc(Cl)cc1 (stereo not drawn) [Alaproclate hydrochloride],inactive: 1.01
12,C[C@H]1[C@H](OC(=O)CCC(=O)O)O[C@@H]2O[C@@]3(C)CC[C@H]4[C@H](C)CC[C@@H]1[C@@]24OO3 [Artesunate],inactive: -0.667
13,O=C(O)CCNC(=O)c1ccc(/N=N/c2ccc(O)c(C(=O)O)c2)cc1 [Balsalazide],inactive: -0.29
14,C[n+]1ccccc1/C=N/O [Pralidoxime Chloride],inactive: -0.275
15,CCC(C)n1ncn(-c2ccc(N3CCN(c4ccc(OCC5COC(Cn6cncn6)(c6ccc(Cl)cc6Cl)O5)cc4)CC3)cc2)c1=O (stereo not drawn) [Itraconazole],inactive: -0.0153
16,Cc1cccc(Nc2ccccc2C(=O)O)c1C [Mefenamic Acid],inactive: 0.159
17,"O=c1cc(-c2ccc(O)c(O[C@@H]3O[C@H](CO)[C@@H](O)[C@H](O)[C@H]3O)c2)oc2cc(O[C@@H]3O[C@H](CO)[C@@H](O)[C@H](O)[C@H]3O)cc(O)c12 [Luteolin-3',7-diglucoside]",inactive: 0.0284
18,Cc1ccsc1C(=CCCN1CCC[C@@H](C(=O)O)C1)c1sccc1C [Tiagabine·HCl],inactive: -0.699
19,O=C1CCC(N2C(=O)c3ccccc3C2=O)C(=O)N1 (stereo not drawn) [Thalidomide],inactive: 0.842
20,CCCCc1nc(Cl)c(CO)n1Cc1ccc(-c2ccccc2-c2nnn[nH]2)cc1 [Losartan Potassium],inactive: 0.544
21,CC1(C)S[C@@H]2[C@H](NC(=O)Cc3ccccc3)C(=O)N2[C@H]1C(=O)O [Penicillin G Potassium (Benzylpenicillin)],inactive: -0.395
22,Cc1nc2n(c(=O)c1CCN1CCC(c3noc4cc(F)ccc34)CC1)CCCC2O (stereo not drawn) [Paliperidone],inactive: -0.232
23,CC(=O)OCC1=C(C(=O)O)N2C(=O)[C@@H](NC(=O)Cc3cccs3)[C@H]2SC1 [Cephalothin sodium salt],inactive: 0.0169

row,Structure (SMILES),Z-score
1,Clc1ccc(C(Cn2ccnc2)OCc2csc3c(Cl)cccc23)c(Cl)c1 (stereo not drawn) [Sertaconazole nitrate],inactive: 1.84
2,Clc1ccc(C(Cn2ccnc2)OCc2csc3c(Cl)cccc23)c(Cl)c1 (stereo not drawn) [Sertaconazole],inactive: -0.424
3,COc1c(O)c2c(=O)cc(OC)c3c4c(OC)cc(=O)c5c(O)c(OC)c6c(c(c1CC(C)=C6C(C)=O)c23)c54 [Hypocrellin B],inactive: -0.849
4,Cc1cc(C)nc(SCC(=O)Nc2ncc(Cc3cccc4ccccc34)s2)n1,inactive: -0.0432
5,COCC(=O)O[C@]1(CCN(C)CCCc2nc3ccccc3[nH]2)CCc2cc(F)ccc2[C@@H]1C(C)C [Mibefradil dihydrochloride],inactive: -0.45
6,CCC(=O)OCC(=O)[C@@]1(OC(=O)CC)[C@@H](C)C[C@H]2[C@@H]3CCC4=CC(=O)C=C[C@]4(C)[C@@]3(Cl)[C@@H](O)C[C@@]21C [Beclomethasone Dipropionate],inactive: -0.337
7,CN(C)c1ccccc1CN1CCCN(Cc2ccccc2N(C)C)C1c1ccncc1,inactive: -0.606
8,OC[C@H]1O[C@@H](n2cnc3c2N=CNC[C@H]3O)C[C@@H]1O [Pentostatin],inactive: -0.0923
9,O=c1c2ccccc2nc2n1CCc1c-2[nH]c2ccccc12 [Rutaecarpine],inactive: -0.703
10,O=C(/C=C/C=C/c1ccc2c(c1)OCO2)N1CCCCC1 [Piperine],inactive: -0.314
11,COc1nc(N)nc2c1ncn2[C@@H]1O[C@H](CO)[C@@H](O)[C@@H]1O [Nelarabine],inactive: 0.228
12,O=C(CCCN1CCC(O)(c2cccc(C(F)(F)F)c2)CC1)c1ccc(F)cc1 [Trifluperidol hydrochloride],inactive: -0.0977
13,COc1ccccc1N1CCN(CCCNc2cc(=O)n(C)c(=O)n2C)CC1 [Urapidil hydrochloride],inactive: -0.637
14,CCCCCCCCCCCCCCSCC(=O)O [Tetradecylthioacetic acid],inactive: -1.37
15,C#CCN(C)CCCOc1ccc(Cl)cc1Cl [Clorgyline hydrochloride],inactive: -0.975
16,O=C(O)CN(CCN(CC(=O)O)CC(=O)O)CCN(CC(=O)O)CC(=O)O [Diethylenetriamine pentaacetic acid],inactive: -0.524
17,CC(C)(CO)Cc1cc(C(C)(C)C)c(O)c(C(C)(C)C)c1,inactive: 1.99
18,CC(C)NCC(O)c1cc(O)cc(O)c1 (stereo not drawn) [Metaproterenol Hemisulfate (Orciprenaline)],inactive: 0.383
19,CC(C)NCC(O)c1cc(O)cc(O)c1 (stereo not drawn) [Metaproterenol hemisulfate],inactive: -0.869
20,CC(C(=O)Nc1cccc(/N=C/c2c(O)ccc3ccccc23)c1)c1ccccc1 (stereo not drawn) [Salermide],active: -2.34
21,O=[N+]([O-])c1cc2nc(O)c(O)nc2cc1[N+](=O)[O-],inactive: 1.04
22,"CC(=O)/C(C)=N/O [2,3-Butanedione monoxime]",inactive: 0.622
23,O=C1[C@H](CC[C@H](O)c2ccc(F)cc2)[C@@H](c2ccc(O)cc2)N1c1ccc(F)cc1 [Ezetimibe],inactive: -0.0882

row,Structure (SMILES),Z-score
1,O=C(O)c1cccc(-c2ccc(-c3cn(C(=O)N4CCCCC4Cc4ccccc4)nn3)cc2)c1 (stereo not drawn),inactive: 2.44
2,Cc1cnc(C(=O)NCCc2ccc(S(=O)(=O)NC(=O)NC3CCCCC3)cc2)cn1 [Glipizide],inactive: -0.27
3,O=C(O)COCCN1CCN([C@H](c2ccccc2)c2ccc(Cl)cc2)CC1 [Levocetirizine Dihydrochloride],inactive: 0.103
4,CC(O)(P(=O)(O)O)P(=O)(O)O [Etidronate Disodium],inactive: 0.704
5,CCCCNc1ccc(C(=O)OCCN(C)C)cc1 [Tetracaine hydrochloride],inactive: -0.597
6,CCCCCOC(=O)Nc1nc(=O)n([C@@H]2O[C@H](C)[C@@H](O)[C@H]2O)cc1F [Capecitabine],inactive: 0.365
7,COc1ccc2c(c1)CC[C@@H]1[C@@H]2CC[C@]2(C)[C@@H](NCCCCCCN3C(=O)CCC3=O)CC[C@@H]12,inactive: 0.374
8,CC(C)=CCC/C(C)=C/CC/C(C)=C/CSc1ccccc1C(=O)O [Salirasib],inactive: 0.462
9,CCN(CC)CCOc1ccc(C(=C(Cl)c2ccccc2)c2ccccc2)cc1 [Clomiphene Citrate],inactive: 0.343
10,Cc1ccc(C=Nc2ccccc2C(=O)Nc2ccccc2)s1 [Retro-2],inactive: -0.439
11,C[C@H](CSC(=O)c1ccccc1)C(=O)N1C[C@@H](Sc2ccccc2)C[C@H]1C(=O)O [Zofenopril calcium],inactive: -0.0375
12,N=C(N)NCCCCN [Agmatine sulfate],inactive: 0.209
13,O=C1C(O)=C([C@H]2CC[C@H](c3ccc(Cl)cc3)CC2)C(=O)c2ccccc21 [Atovaquone],inactive: -0.478
14,"CC(C)NCC(O)c1ccc(O)c(O)c1 (single isomer, unassigned; (-)) [(-)-Isoproterenol hydrochloride]",inactive: 0.0377
15,Cc1ccccc1C(OCCN(C)C)c1ccccc1 (stereo not drawn) [Orphenadrine Citrate],inactive: 1.09
16,Cc1ccccc1C(OCCN(C)C)c1ccccc1 (stereo not drawn) [Orphenadrine hydrochloride],inactive: 0.227
17,NCCCC(N)(C(=O)O)C(F)F (stereo not drawn) [Eflornithine·HCl],inactive: 0.127
18,COc1c2ccoc2cc2oc(=O)ccc12 [Bergapten],inactive: 1.26
19,O=C1CCc2ccc(OCCCCN3CCN(c4cccc(Cl)c4Cl)CC3)cc2N1 [Aripiprazole],inactive: 0.0855
20,CN(C)CCOC(c1ccc(Cl)cc1)c1ccccn1 (stereo not drawn) [Carbinoxamine Maleate],inactive: -0.177
21,COC(=O)C1=C(C)NC(C)=C(C(=O)OCC(C)C)C1c1ccccc1[N+](=O)[O-] (stereo not drawn) [Nisoldipine],inactive: 0.278
22,COc1ccc([C@@H]2OC[C@@H]3[C@H]2CO[C@H]3c2ccc(OC)c(OC)c2)cc1OC [Eudesmine],inactive: -0.306

# Reprinted at random: 5 entries already listed
row,Structure (SMILES),Z-score
15,CCC(C)n1ncn(-c2ccc(N3CCN(c4ccc(OCC5COC(Cn6cncn6)(c6ccc(Cl)cc6Cl)O5)cc4)CC3)cc2)c1=O (stereo not drawn) [Itraconazole],inactive: -0.0153
22,COc1ccc([C@@H]2OC[C@@H]3[C@H]2CO[C@H]3c2ccc(OC)c(OC)c2)cc1OC [Eudesmine],inactive: -0.306
11,CC(N)C(=O)OC(C)(C)Cc1ccc(Cl)cc1 (stereo not drawn) [Alaproclate hydrochloride],inactive: 1.01
18,CC(C)NCC(O)c1cc(O)cc(O)c1 (stereo not drawn) [Metaproterenol Hemisulfate (Orciprenaline)],inactive: 0.383
14,"CC(C)NCC(O)c1ccc(O)c(O)c1 (single isomer, unassigned; (-)) [(-)-Isoproterenol hydrochloride]",inactive: 0.0377
